In publication PMC6428865:
Results are given in words; binding and its absence hold for the method and conditions named. In cells and extracts the contact can be indirect. Sequences can lack the tags named with a protein.

By UniProt entry, the sequences of proteins in these tests, tags left out.
UniProt P22147: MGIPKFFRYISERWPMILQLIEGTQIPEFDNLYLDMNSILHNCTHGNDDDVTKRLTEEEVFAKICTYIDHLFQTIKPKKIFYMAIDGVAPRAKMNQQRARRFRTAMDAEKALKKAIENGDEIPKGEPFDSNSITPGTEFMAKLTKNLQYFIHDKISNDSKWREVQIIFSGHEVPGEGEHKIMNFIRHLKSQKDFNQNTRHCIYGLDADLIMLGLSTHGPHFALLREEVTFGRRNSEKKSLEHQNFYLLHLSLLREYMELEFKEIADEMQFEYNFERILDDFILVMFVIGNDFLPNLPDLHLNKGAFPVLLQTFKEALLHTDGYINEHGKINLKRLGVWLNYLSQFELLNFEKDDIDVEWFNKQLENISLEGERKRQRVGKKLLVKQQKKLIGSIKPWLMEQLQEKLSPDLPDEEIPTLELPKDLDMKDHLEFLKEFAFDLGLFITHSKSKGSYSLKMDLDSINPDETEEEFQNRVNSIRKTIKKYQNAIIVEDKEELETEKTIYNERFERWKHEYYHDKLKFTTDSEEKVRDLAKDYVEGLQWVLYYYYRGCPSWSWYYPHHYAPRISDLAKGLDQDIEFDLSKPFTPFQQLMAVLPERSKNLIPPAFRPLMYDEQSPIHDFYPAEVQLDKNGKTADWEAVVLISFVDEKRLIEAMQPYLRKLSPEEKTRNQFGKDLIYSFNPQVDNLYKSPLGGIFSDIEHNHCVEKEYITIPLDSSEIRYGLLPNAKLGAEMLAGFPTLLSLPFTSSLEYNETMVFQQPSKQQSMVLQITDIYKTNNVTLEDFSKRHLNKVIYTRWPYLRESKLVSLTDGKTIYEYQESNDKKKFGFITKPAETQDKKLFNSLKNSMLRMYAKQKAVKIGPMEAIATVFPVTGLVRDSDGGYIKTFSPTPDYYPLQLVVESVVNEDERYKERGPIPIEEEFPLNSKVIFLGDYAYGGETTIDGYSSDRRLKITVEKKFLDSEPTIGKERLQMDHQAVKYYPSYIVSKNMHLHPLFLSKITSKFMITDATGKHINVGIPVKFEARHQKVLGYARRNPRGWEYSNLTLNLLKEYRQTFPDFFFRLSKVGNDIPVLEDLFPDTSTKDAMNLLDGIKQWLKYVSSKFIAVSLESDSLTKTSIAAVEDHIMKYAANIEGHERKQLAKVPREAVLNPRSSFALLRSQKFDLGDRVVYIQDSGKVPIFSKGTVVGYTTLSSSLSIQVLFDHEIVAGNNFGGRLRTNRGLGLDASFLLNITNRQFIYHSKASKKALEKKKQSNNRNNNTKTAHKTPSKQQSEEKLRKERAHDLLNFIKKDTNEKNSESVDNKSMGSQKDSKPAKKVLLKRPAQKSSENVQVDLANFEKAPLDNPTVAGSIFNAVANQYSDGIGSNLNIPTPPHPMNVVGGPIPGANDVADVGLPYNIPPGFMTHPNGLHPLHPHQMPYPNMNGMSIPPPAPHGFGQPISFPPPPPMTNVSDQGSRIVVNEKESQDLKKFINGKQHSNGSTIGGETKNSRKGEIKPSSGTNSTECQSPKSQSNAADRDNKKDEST

Biological target: T1, eIF4A-GFP (yeast (genomic fusion in the yeast strain)) (UniProt P10081)
T1 sequence: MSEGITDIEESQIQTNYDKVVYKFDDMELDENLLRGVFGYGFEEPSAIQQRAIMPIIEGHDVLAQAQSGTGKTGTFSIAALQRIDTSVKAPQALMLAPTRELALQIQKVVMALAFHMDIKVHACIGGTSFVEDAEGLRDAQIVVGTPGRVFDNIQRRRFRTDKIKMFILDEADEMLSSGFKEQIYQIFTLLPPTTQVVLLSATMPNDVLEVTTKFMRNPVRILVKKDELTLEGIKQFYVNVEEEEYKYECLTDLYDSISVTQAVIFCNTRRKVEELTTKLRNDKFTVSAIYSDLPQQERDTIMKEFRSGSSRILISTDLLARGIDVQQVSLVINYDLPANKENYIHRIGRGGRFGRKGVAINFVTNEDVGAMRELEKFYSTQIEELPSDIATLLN
Assay: co-IP; GFP-trap_A beads take the genomic GFP fusion from yeast extracts (3 mg total protein) treated or not treated with RNase; 1 h at 4 °C; lysis buffer 50 mM Tris-HCl pH 7.5, 150 mM NaCl, 0.1% NP-40, 1 mM EDTA; washes with 10 mM Tris-HCl pH 7.5, 200 mM NaCl, 0.5 mM EDTA; FLAG-tagged proteins seen by western blot

Question: With “Xrn1-FLAG (from UniProt P22147 1-1528) (enzyme)” as the substance, how does the binding read?
Answer: Its binding is “no binding”.
